Results as given in the supplement of paper PMC10849652.
This is one part of the list.

Amino acid sequences for entries named in this document (tags omitted). A change or cut given only in a name is not applied to a line headed by its entry.
UniProt Q96AT9: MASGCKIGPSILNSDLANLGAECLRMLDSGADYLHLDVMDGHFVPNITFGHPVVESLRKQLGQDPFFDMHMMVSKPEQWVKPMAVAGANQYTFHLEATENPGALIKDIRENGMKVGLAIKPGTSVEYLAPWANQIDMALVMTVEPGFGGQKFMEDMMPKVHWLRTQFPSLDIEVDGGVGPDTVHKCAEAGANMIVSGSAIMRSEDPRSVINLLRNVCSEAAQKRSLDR
UniProt Q969K3: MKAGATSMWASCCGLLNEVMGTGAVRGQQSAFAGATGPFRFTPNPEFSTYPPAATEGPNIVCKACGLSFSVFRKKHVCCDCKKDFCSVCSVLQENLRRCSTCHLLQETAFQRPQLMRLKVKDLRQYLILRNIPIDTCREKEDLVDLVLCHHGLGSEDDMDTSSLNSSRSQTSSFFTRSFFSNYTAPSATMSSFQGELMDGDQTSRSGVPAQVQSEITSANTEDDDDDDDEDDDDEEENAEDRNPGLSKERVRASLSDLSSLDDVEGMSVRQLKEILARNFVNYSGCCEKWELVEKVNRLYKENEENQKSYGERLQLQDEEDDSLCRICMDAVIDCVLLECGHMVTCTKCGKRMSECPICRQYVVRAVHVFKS
UniProt O75150, whole entry, looked up: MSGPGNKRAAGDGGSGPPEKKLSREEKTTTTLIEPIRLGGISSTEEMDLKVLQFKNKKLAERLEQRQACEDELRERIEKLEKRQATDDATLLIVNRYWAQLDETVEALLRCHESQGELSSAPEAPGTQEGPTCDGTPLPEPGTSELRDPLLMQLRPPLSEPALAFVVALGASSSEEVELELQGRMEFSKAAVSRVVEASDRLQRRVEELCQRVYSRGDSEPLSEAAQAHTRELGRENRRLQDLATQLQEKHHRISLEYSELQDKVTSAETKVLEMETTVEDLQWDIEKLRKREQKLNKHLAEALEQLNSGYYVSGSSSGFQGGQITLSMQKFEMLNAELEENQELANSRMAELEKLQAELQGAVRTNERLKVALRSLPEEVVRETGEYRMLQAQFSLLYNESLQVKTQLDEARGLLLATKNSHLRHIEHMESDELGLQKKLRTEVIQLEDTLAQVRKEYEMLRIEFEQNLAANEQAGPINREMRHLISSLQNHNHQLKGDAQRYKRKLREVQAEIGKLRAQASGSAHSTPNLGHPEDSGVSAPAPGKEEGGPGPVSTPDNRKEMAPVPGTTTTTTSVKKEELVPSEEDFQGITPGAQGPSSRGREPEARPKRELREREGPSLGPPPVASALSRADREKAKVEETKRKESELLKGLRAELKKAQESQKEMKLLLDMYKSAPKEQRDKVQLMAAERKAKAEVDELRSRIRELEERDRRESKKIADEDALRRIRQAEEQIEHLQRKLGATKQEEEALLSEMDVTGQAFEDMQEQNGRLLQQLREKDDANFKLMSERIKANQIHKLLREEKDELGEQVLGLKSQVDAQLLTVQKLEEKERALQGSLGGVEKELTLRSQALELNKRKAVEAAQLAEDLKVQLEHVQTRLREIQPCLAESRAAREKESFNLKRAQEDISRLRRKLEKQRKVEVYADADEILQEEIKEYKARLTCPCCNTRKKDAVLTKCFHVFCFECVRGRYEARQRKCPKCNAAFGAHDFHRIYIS
UniProt Q5VT52: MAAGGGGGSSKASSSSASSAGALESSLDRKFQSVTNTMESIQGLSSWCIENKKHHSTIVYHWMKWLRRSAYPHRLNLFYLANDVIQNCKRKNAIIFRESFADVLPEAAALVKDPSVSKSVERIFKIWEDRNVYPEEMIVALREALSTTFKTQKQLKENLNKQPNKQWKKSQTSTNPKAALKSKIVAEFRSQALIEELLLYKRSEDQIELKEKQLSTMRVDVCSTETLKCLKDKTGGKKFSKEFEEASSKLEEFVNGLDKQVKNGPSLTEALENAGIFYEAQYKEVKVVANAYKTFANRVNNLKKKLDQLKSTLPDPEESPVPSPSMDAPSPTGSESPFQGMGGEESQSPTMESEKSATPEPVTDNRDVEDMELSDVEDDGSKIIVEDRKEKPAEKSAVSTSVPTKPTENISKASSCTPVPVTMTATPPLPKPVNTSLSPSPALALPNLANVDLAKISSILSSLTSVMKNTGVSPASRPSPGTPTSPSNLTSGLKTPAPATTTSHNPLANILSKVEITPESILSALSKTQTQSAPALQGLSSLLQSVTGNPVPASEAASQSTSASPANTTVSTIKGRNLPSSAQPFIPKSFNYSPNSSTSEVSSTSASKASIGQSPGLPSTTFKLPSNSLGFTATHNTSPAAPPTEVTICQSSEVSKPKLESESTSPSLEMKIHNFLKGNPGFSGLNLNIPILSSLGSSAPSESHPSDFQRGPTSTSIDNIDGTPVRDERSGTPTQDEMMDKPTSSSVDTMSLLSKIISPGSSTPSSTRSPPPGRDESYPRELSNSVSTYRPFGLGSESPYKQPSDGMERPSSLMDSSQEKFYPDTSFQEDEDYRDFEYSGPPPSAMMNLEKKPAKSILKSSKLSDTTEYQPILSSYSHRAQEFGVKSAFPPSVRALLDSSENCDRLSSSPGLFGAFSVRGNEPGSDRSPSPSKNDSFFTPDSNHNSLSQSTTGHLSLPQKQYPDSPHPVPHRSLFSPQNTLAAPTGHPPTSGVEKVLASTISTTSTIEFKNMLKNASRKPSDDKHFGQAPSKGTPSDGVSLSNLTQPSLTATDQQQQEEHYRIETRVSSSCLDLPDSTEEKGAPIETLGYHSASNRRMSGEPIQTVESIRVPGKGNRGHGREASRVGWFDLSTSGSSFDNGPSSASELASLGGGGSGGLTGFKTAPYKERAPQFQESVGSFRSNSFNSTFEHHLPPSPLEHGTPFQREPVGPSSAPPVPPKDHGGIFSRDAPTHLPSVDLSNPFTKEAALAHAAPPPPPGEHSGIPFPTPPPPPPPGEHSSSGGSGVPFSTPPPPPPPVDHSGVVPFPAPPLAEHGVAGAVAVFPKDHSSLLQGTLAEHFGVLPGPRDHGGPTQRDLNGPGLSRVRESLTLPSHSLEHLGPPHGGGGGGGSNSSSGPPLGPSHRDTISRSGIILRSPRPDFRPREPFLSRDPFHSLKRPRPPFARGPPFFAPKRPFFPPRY
UniProt P08922: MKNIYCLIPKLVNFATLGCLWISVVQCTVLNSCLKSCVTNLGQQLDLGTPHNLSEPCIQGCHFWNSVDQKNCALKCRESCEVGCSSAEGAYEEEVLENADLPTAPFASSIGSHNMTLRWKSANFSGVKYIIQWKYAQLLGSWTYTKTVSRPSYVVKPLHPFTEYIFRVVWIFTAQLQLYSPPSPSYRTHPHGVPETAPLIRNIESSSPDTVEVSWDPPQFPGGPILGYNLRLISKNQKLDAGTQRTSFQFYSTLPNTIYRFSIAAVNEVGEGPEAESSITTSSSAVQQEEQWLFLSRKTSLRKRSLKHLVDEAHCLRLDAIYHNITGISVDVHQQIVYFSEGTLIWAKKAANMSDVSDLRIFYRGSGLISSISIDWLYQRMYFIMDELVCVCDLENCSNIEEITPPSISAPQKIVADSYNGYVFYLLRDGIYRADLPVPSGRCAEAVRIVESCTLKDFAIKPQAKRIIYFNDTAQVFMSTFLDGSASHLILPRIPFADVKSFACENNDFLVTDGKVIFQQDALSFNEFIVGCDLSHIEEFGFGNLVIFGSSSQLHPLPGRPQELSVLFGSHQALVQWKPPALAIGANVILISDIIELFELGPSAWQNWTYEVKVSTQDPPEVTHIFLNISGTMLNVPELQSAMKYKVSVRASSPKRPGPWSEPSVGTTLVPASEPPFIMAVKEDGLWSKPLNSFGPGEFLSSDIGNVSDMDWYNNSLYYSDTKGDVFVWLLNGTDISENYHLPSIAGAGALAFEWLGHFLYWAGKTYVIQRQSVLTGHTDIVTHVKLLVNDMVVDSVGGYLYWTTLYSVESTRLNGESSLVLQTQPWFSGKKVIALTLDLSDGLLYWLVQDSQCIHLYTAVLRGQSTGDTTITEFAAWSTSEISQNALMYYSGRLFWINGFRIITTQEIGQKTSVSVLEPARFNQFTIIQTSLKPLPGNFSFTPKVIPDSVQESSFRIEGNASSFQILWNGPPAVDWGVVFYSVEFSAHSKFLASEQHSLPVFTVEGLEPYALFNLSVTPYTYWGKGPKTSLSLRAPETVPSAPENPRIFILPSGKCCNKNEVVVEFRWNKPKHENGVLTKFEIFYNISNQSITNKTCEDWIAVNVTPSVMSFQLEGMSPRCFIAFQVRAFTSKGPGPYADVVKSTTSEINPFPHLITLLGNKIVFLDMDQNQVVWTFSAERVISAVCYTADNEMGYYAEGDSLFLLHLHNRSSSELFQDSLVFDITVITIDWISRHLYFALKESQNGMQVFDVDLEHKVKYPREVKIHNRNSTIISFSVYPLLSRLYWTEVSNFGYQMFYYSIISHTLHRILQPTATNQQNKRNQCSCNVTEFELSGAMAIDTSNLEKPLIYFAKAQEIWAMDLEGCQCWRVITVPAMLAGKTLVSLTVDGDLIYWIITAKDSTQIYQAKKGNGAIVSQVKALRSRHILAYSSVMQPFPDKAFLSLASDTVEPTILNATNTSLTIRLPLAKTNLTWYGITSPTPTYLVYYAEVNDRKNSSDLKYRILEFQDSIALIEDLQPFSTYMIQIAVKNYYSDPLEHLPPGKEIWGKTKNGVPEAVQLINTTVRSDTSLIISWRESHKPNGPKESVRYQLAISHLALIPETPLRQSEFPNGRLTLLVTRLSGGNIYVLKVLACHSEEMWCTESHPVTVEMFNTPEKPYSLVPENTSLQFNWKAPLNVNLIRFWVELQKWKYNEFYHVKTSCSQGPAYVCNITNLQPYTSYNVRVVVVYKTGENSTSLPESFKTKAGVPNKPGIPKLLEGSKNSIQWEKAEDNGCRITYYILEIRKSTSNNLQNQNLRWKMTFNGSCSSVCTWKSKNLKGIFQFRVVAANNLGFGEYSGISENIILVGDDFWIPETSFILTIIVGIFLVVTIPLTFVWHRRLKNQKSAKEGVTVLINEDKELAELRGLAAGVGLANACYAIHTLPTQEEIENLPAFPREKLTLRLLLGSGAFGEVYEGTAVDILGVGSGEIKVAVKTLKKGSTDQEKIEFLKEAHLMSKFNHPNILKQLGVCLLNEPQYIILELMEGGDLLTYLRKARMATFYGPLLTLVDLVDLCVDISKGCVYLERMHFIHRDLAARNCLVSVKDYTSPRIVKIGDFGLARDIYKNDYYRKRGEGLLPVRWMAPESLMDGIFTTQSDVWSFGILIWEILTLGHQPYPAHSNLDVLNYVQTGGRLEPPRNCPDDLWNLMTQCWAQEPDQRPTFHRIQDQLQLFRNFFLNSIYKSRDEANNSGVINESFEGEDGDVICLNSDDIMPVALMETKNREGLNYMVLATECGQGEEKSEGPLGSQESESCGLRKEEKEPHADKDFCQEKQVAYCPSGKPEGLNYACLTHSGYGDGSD
UniProt Q5M7Z0: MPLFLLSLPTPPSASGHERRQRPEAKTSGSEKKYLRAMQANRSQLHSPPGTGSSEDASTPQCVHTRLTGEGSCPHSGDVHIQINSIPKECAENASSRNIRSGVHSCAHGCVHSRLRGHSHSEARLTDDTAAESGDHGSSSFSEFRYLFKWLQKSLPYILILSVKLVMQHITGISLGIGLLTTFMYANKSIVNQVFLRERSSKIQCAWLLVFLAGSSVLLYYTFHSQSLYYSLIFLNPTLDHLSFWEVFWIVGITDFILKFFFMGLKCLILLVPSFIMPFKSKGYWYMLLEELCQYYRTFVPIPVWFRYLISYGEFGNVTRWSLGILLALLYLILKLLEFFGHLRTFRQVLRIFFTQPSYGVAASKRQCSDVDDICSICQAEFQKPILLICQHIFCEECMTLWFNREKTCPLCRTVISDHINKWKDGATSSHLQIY
UniProt Q8TA86: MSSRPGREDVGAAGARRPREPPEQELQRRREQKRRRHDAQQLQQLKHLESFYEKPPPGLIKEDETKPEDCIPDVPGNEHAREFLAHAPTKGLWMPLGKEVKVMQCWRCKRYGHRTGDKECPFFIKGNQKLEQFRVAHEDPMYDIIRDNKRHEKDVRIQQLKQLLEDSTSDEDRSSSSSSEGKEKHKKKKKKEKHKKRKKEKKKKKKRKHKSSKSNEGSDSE
UniProt P60602: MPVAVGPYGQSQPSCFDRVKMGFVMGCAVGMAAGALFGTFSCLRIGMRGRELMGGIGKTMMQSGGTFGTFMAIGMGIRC
UniProt P78317: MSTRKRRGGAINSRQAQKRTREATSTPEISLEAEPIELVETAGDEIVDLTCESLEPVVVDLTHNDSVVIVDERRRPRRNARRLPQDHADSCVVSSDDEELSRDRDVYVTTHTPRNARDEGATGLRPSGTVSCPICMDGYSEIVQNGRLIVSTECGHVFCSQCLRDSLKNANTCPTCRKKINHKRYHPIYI

compound: CCCS(=O)(=O)Nc1ccc(F)c(C(=O)c2c[nH]c3ncc(-c4ccc(Cl)cc4)cc23)c1F [vemurafenib]; test: log2 fold change, soluble protein after heating vs DMSO (PISA); higher = thermal stabilisation; K562 cells, 10 uM, 30 min; active = over 0.2 and 3.5 SD of the protein, either way, in both replicates (recomputed)
Procedure, shortened: (§1)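 Thermal stability values are relative to control samples and come from duplicates. They are expressed as log2 fold changes. For measurement, K562 cells (2×10^6 cells/mL) received 10 μM compound for 30 min, and aliquots were heated for 3 min over 48°C-58°C, pooled, and extracted at 4°C in PBS with 0.5% NP-40. Soluble protein, the supernatant after 21,000xg for 90 min, was quantified by TMTpro 16plex LC-MS/MS with equalised channel sums.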

log2 fold change, inactive:
RPS7, A0A2R8Y623 0.363
RPL10 (UniProt F8W7C6) 0.023
RRP1 (UniProt P56182) -0.029
RPE (UniProt Q96AT9) 0.06
RNF26 (UniProt Q9BY78) 0.281
RNF34 isoform 2 (UniProt Q969K3) -0.257
RPL7L1 (UniProt Q6DKI1) -0.076
RPL37 (UniProt P61927) -0.113
RNF31 (UniProt Q96EP0) -0.062
RPRD1A (UniProt Q96P16) 0.017
RNF40 (UniProt O75150) -0.009
RPRD2 (UniProt Q5VT52) 0.086

compound: CCCS(=O)(=O)Nc1ccc(F)c(C(=O)c2c[nH]c3ncc(Cl)cc23)c1F; test: as above
Procedure, shortened: as §1

log2 fold change, inactive:
RPL10 (UniProt F8W7C6) 0.167
ROS1 (UniProt P08922) -0.164
RPE (UniProt Q96AT9) -0.019
RRN3 (UniProt Q9NYV6) 0.032
RNFT1 (UniProt Q5M7Z0) 0.051
RNF34 isoform 2 (UniProt Q969K3) 0.089
RPS19 (UniProt M0R2L9) -0.98
RP9 (UniProt Q8TA86) -0.229
RPS6KA5 (UniProt O75582) 0.121
RPL37 (UniProt P61927) -0.312
ROMO1 (UniProt P60602) -0.017
RPUSD4 (UniProt Q96CM3) -0.08
RPUSD3 (UniProt Q6P087) 0.079
RPRD2 (UniProt Q5VT52) 0.197
RNF4 (UniProt P78317) 0.1

compound: CCCc1cc(C)[nH]c(=O)c1CNC(=O)c1cc(-c2ccnc(N3CCN(C)CC3)c2)cc2c1cnn2C(C)C; test: as above
Procedure, shortened: as §1

log2 fold change, inactive:
RPS7, A0A2R8Y623 0.124
RPL10 (UniProt F8W7C6) 0.132
ROS1 (UniProt P08922) -0.226
RPSA (UniProt F8WD59) 0.077
RPE (UniProt Q96AT9) 0.011
RNFT1 (UniProt Q5M7Z0) -0.147
RNF34 isoform 2 (UniProt Q969K3) -0.094
RPS19 (UniProt M0R2L9) 0.113
RP9 (UniProt Q8TA86) 0.039
RPS6KA5 (UniProt O75582) 0.237
RPL37 (UniProt P61927) 0.093
ROMO1 (UniProt P60602) -0.082
RPS6KB2 (UniProt Q9UBS0) 0.124
RPUSD4 (UniProt Q96CM3) -0.052
RPUSD3 (UniProt Q6P087) -0.021
RNF40 (UniProt O75150) 0.13
RNF4 (UniProt P78317) 0.228

compound: CCN(CC)Cc1ccc2cc(COC(=O)Nc3ccc(C(=O)NO)cc3)ccc2c1 [givinostat]; test: as above
Procedure, shortened: as §1

log2 fold change, inactive:
RPS7, A0A2R8Y623 -0.027
RPL10 (UniProt F8W7C6) 0.079
RRP1 (UniProt P56182) 0.282
ROS1 (UniProt P08922) 0.039
RPE (UniProt Q96AT9) -0.157
RRN3 (UniProt Q9NYV6) 0.121
RNFT1 (UniProt Q5M7Z0) 0.221
RPAP2 (UniProt Q8IXW5) 0.059
RPL22L1 (UniProt Q6P5R6) 0.283
RPP30 (UniProt Q5VU11) -0.115
RNF34 isoform 2 (UniProt Q969K3) 0.062
RP9 (UniProt Q8TA86) 0.024
RPS6KA5 (UniProt O75582) 0.025
RPL37 (UniProt P61927) 0.029
RNF31 (UniProt Q96EP0) -0.004
ROMO1 (UniProt P60602) -0.027
RPS6KB2 (UniProt Q9UBS0) -0.068
RPRD1A (UniProt Q96P16) 0.138
RPF2 (UniProt Q9H7B2) 0.478
RNF40 (UniProt O75150) 0.38
RPRD2 (UniProt Q5VT52) 0.103
RNF4 (UniProt P78317) 0.153

compound: CCN(CCCOc1ccc2c(Nc3cc(CC(=O)Nc4cccc(F)c4)[nH]n3)ncnc2c1)CCOP(=O)(O)O [barasertib]; test: as above
Procedure, shortened: as §1

log2 fold change, inactive:
RPS7, A0A2R8Y623 0.608
RPL10 (UniProt F8W7C6) -0.079
ROS1 (UniProt P08922) 0.028
RPE (UniProt Q96AT9) 0.078
RNF26 (UniProt Q9BY78) 0.124
RNF41 (UniProt Q9H4P4) -0.15
RPP30 (UniProt Q5VU11) -0.114
RNF34 isoform 2 (UniProt Q969K3) 0.066
RP9 (UniProt Q8TA86) -0.158
RPL7L1 (UniProt Q6DKI1) -0.033
RPL37 (UniProt P61927) -0.277
ROMO1 (UniProt P60602) -0.036
RNF40 (UniProt O75150) 0.089
RPRD2 (UniProt Q5VT52) -0.23
RNF4 (UniProt P78317) 0.106
